Screening data

The results are deposited in PubChem (AID1159506; NCATS, 2015).

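Luminescence from an EWS-FLI1 target-promoter (NR0B1) reporter, set against a CMV-promoter reporter, two days after silencing single genes in TC32 Ewing sarcoma cells. Each siRNA was applied at 20 nM. A z-score of the log NR0B1-over-CMV signal, less the median of siRNAs with the same seed; more negative means a stronger specific loss of the NR0B1 reporter.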

This is part of the screen; most of the strongest results are not listed here. Sequences are the guide (antisense) strand, without overhang.

* UUGUCGAUGAUGCAGGAGC against TNRC18P2 : seed-corrected z-score -1.526
* UCUCCGUAGCGUACAGUGC against KCNJ10 : seed-corrected z-score 0.1414
* UUUCUUUCACCCACAAGGC against ALMS1P1 : seed-corrected z-score 0.6042
* UCUCCGAUAAGGCACCCUG against REEP1 : seed-corrected z-score -0.04801
* UCUUCUUCAAUCGAGAACC against FANK1 : seed-corrected z-score 0.432
* UAGUUUUACAGGUCCGCUC against TACC3 : seed-corrected z-score 0.863
* AUUGGUAUUCCGGUUAUGG against IL17A : seed-corrected z-score 2.305
* UUCAUUCUCAAUUUGUUGU against FAM185A : seed-corrected z-score -0.1918
* AAGGGUAUAGGUUUGCGGC against SCRT2 : seed-corrected z-score -0.06029
* UGUAGUUGAGGUACAAUUC against TBPL2 : seed-corrected z-score -1.02
* UCUGGUUUCAAGCUGCUUC against COL22A1 : seed-corrected z-score -0.1045
* GAUGUUGUCACGCAACACC against HIST1H4A : seed-corrected z-score -0.4538
* UAGGCAAUAAAUGAAAGGG against OR6B1 : seed-corrected z-score 0.1017
* AAUGUAGGAACGAACAUCC against LCT : seed-corrected z-score -0.9433
* UUCAAGAUCUGAUACUUCC against CYFIP2 : seed-corrected z-score 0.2926
* UUUGGAAGUAGUCCGGAUG against ABCC5 : seed-corrected z-score 0.1635
* UUCUAGCUCAGUAUUAGCC against KRT12 : seed-corrected z-score 0.2444
* UAAGAUUCUCCCUUUCCCG against GOSR1 : seed-corrected z-score 0.4473
* UAUGAUCUCUUCUUCGUGG against PRIM2 : seed-corrected z-score -0.4285
* UUCGGAGUUUUCUAUUUCC against SPAG1 : seed-corrected z-score -0.3134
* UCCUGCACCAUUAGGGACC against GRASP : seed-corrected z-score -0.9389
* ACAUUUGGGACUUUCAUUG against DHX33 : seed-corrected z-score 0.3661
* UUGUGAAACACCAUGCAGC against NDUFAF6 : seed-corrected z-score -0.3744
* UUAGGUUCGUGAUUGGUGG against IL3RA : seed-corrected z-score -0.14
* UUUCUUAUCUGCCGGAUUC against LOC645967 : seed-corrected z-score 1.659
* UGCUGUAUUAAGUUCAAGU against ARID1B : seed-corrected z-score 0.3491
* AGAGCUGAAUUUGAUUUCC against TNFRSF13C : seed-corrected z-score -1.268
* UACAUUGUUCCGAACAAGG against TMEM45A : seed-corrected z-score -0.04762
* UAAUGAAUAACCGGGCAUC against MIR9-3HG : seed-corrected z-score 1.363
* AUCCUUUUGAUUUGGGUAG against DPPA4 : seed-corrected z-score -0.4047
* UCCUCAGCAAUGUCGAAGG against MBD3 : seed-corrected z-score 0.02178
* UUUUGGGAAAUGCCCGUUU against DSCR9 : seed-corrected z-score -0.07362
* UCUUGUUAUAUAACCCACU against PDXDC2P : seed-corrected z-score 0.1915
* UUUGUUCACGCCCACGAUG against EEF1A2 : seed-corrected z-score -0.1403
* UGUAGGAACGUAAUUCUCG against RND3 : seed-corrected z-score -0.3381
* UUACGUCUGAGCACAUUGG against KIF4A : seed-corrected z-score 0.2667
* UCAGUGCUUCCUUCAAACC against LOC642677 : seed-corrected z-score -0.7318
* UUUUUGAAGAAUCCGAGUG against COMMD10 : seed-corrected z-score 1.84
* UUUCGAAGCUCAUAGAUUC against PSMB5 : seed-corrected z-score 0.6844
* AAGAGUAGAAGUGUUAUAU against CMA1 : seed-corrected z-score -0.618
* UAGGAUAGAAGAGUAUGGG against OR51S1 : seed-corrected z-score -0.03995
* UUCUAUCUUGGUAUAGUUG against MAPRE3 : seed-corrected z-score 0.1749
* UCUUGUCUAGGUUCCGAGC against DNAJC11 : seed-corrected z-score 0.8137
* UGUUUCACCUGUUUAAGCG against ANAPC16 : seed-corrected z-score -0.3496
* UUCAGUAGUACUACGUUUG against RABGAP1 : seed-corrected z-score 0.6552
* UCCACAUCCAUAGUCAAUG against GOLGA8EP : seed-corrected z-score -0.1493
* UCUCCAUAAAGUCAAAUGG against RRM2 : seed-corrected z-score -0.1199
* ACAUGGAUUACAUCUGUGG against CLEC12B : seed-corrected z-score 0.3241

The first 5 entries again:

For UUGUCGAUGAUGCAGGAGC against TNRC18P2 the result was seed-corrected z-score -1.526.
For UCUCCGUAGCGUACAGUGC against KCNJ10 the result was seed-corrected z-score 0.1414.
For UUUCUUUCACCCACAAGGC against ALMS1P1 the result was seed-corrected z-score 0.6042.
For UCUCCGAUAAGGCACCCUG against REEP1 the result was seed-corrected z-score -0.04801.
For UCUUCUUCAAUCGAGAACC against FANK1 the result was seed-corrected z-score 0.432.